# Experimental data: the supplement of paper PMC8728848
# The list shows a part of the results.
# B1: MFG-E8 (Homo sapiens), Q08431 (protein)
# chain: MPRPRLLAALCGALLCAPSLLVALDICSKNPCHNGGLCEEISQEVRGDVFPSYTCTCLKGYAGNHCETKCVEPLGLENGNIANSQIAASSVRVTFLGLQHWVPELARLNRAGMVNAWTPSSNDDNPWIQVNLLRRMWVTGVVTQGASRLASHEYLKAFKVAYSLNGHEFDFIHDVNKKHKEFVGNWNKNAVHVNLFETPVEAQYVRLYPTSCHTACTLRFELLGCELNGCANPLGLKNNSIPDKQITASSSYKTWGLHLFSWNPSYARLDKQGNFNAWVAGSYGNDQWLQVDLGSSKEVTGIITQGARNFGSVQFVASYKVAYSNDSANWTEYQDPRTGSSKIFPGNWDNHSHKKNLFETPILARYVRILPVAWHNRIALRLELLGC
# Assays:
# Test in all cases: glycan array binding signal (z-score within array); higher = stronger binding
# Details in all cases: glycan notation: IUPAC condensed, linker removed
# [1] = molecular target: Gal(b1-4)GlcNAc(b1-2)Man(a1-6)[Man(a1-3)]Man(b1-4)GlcNAc(b1-4)GlcNAc
# Method in brief: (§1)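 Columns mapping to the same glycan were averaged after glycan names were converted to IUPAC-condensed notation. The data come from 3228 arrays in the Consortium for Functional Glycomics database, limited to those with an available protein sequence. Binding is reported as a within-array Z-score averaged across arrays of one protein sequence and across linkers.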
# [2] = molecular target: Gal(b1-4)GlcNAc(b1-2)[Gal(b1-4)GlcNAc(b1-4)]Man(a1-3)[Gal(b1-4)GlcNAc(b1-2)Man(a1-6)]Man(b1-4)GlcNAc(b1-4)GlcNAc
# Method in brief: as §1
# [3] = molecular target: Gal(b1-4)GlcNAc(b1-2)[Gal(b1-4)GlcNAc(b1-4)]Man(a1-3)[Gal(b1-4)GlcNAc(b1-2)[Gal(b1-4)GlcNAc(b1-6)]Man(a1-6)]Man(b1-4)GlcNAc(b1-4)GlcNAc
# Method in brief: as §1
# [4] = molecular target: Gal(b1-4)GlcNAc(b1-2)[Gal(b1-4)GlcNAc(b1-4)]Man(a1-3)[GlcNAc(b1-4)][Gal(b1-4)GlcNAc(b1-2)Man(a1-6)]Man(b1-4)GlcNAc(b1-4)GlcNAc
# Method in brief: as §1
# [5] = molecular target: Gal(b1-4)GlcNAc(b1-2)[Gal(b1-4)GlcNAc(b1-4)]Man(a1-3)[GlcNAc(b1-4)][Gal(b1-4)GlcNAc(b1-2)[Gal(b1-4)GlcNAc(b1-6)]Man(a1-6)]Man(b1-4)GlcNAc(b1-4)GlcNAc
# Method in brief: as §1
# [6] = molecular target: Gal(b1-4)GlcNAc(b1-2)[Gal(b1-4)GlcNAc(b1-6)]Man(a1-6)[Gal(b1-4)GlcNAc(b1-2)Man(a1-3)]Man(b1-4)GlcNAc(b1-4)GlcNAc
# Method in brief: as §1
# [7] = molecular target: Gal(b1-4)GlcNAc(b1-2)[Gal(b1-4)GlcNAc(b1-6)]Man(a1-6)[GlcNAc(b1-4)][Gal(b1-4)GlcNAc(b1-2)Man(a1-3)]Man(b1-4)GlcNAc(b1-4)GlcNAc
# Method in brief: as §1
# [8] = molecular target: Gal(b1-4)GlcNAc(b1-3)Gal(b1-3)GlcNAc
# Method in brief: as §1
# [9] = molecular target: Gal(b1-4)GlcNAc(b1-3)Gal(b1-4)Glc
# Method in brief: as §1
# [10] = molecular target: Gal(b1-4)GlcNAc(b1-3)Gal(b1-4)GlcNAc
# Method in brief: as §1
# [11] = molecular target: Gal(b1-4)GlcNAc(b1-3)Gal(b1-4)GlcNAc(b1-3)Gal(b1-4)GlcNAc
# Method in brief: as §1
# [12] = molecular target: Gal(b1-4)GlcNAc(b1-3)Gal(b1-4)[Fuc(a1-3)GlcNAc(b1-6)]Gal(b1-4)Glc
# Method in brief: as §1
# [13] = molecular target: Gal(b1-4)GlcNAc(b1-3)Gal(b1-4)[Fuc(a1-3)]GlcNAc(b1-3)Gal(b1-4)[Fuc(a1-3)]GlcNAc
# Method in brief: as §1
# [14] = molecular target: Gal(b1-4)GlcNAc(b1-3)GalNAc
# Method in brief: as §1
# [15] = molecular target: Gal(b1-4)GlcNAc(b1-3)[Gal(b1-4)GlcNAc(b1-6)]Gal(b1-4)GlcNAc
# Method in brief: as §1
# [16] = molecular target: Gal(b1-4)GlcNAc(b1-3)[Gal(b1-4)GlcNAc(b1-6)]GalNAc
# Method in brief: as §1
# [17] = molecular target: Gal(b1-4)GlcNAc(b1-3)[GlcNAc(b1-6)]Gal(b1-4)GlcNAc
# Method in brief: as §1
# [18] = molecular target: Gal(b1-4)GlcNAc(b1-6)Gal(b1-4)GlcNAc
# Method in brief: as §1
# [19] = molecular target: Gal(b1-4)GlcNAc(b1-6)GalNAc
# Method in brief: as §1
# [20] = molecular target: Gal(b1-4)GlcNAc(b1-6)[Gal(b1-3)]GalNAc
# Method in brief: as §1
# Gal(b1-6)Gal = molecular target: Gal(b1-6)Gal
# Method in brief: as §1
# Gal3S(b1-3)GalNAc = molecular target: Gal3S(b1-3)GalNAc
# Method in brief: as §1
# Gal3S(b1-3)GlcNAc = molecular target: Gal3S(b1-3)GlcNAc
# Method in brief: as §1
# [21] = molecular target: Gal3S(b1-3)[Fuc(a1-4)]GlcNAc
# Method in brief: as §1
# Gal3S(b1-4)Glc = molecular target: Gal3S(b1-4)Glc
# Method in brief: as §1
# Gal3S(b1-4)Glc6S = molecular target: Gal3S(b1-4)Glc6S
# Method in brief: as §1
# Gal3S(b1-4)GlcNAc = molecular target: Gal3S(b1-4)GlcNAc
# Method in brief: as §1
# Gal3S(b1-4)GlcNAc6S = molecular target: Gal3S(b1-4)GlcNAc6S
# Method in brief: as §1
# [22] = molecular target: Gal3S(b1-4)[Fuc(a1-3)]Glc
# Method in brief: as §1
# [23] = molecular target: Gal3S(b1-4)[Fuc(a1-3)]Glc6S
# Method in brief: as §1
# Gal3S4S(b1-4)GlcNAc = molecular target: Gal3S4S(b1-4)GlcNAc
# Method in brief: as §1
# Gal3S6S(b1-4)GlcNAc = molecular target: Gal3S6S(b1-4)GlcNAc
# Method in brief: as §1
# Gal3S6S(b1-4)GlcNAc6S = molecular target: Gal3S6S(b1-4)GlcNAc6S
# Method in brief: as §1
# Gal4S(b1-4)GlcNAc = molecular target: Gal4S(b1-4)GlcNAc
# Method in brief: as §1
# Gal4S6S(b1-4)GlcNAc = molecular target: Gal4S6S(b1-4)GlcNAc
# Method in brief: as §1
# Gal6S(b1-3)GlcNAc = molecular target: Gal6S(b1-3)GlcNAc
# Method in brief: as §1
# Gal6S(b1-3)GlcNAc6S = molecular target: Gal6S(b1-3)GlcNAc6S
# Method in brief: as §1
# Gal6S(b1-4)Glc = molecular target: Gal6S(b1-4)Glc
# Method in brief: as §1
binder,measurement,setting,value
B1,glycan array binding signal (z-score),[1],-0.035
same,glycan array binding signal (z-score),[2],1.32
same,glycan array binding signal (z-score),[3],-0.253
same,glycan array binding signal (z-score),[4],1.14
same,glycan array binding signal (z-score),[5],-0.395
same,glycan array binding signal (z-score),[6],-0.137
same,glycan array binding signal (z-score),[7],-0.008
same,glycan array binding signal (z-score),[8],-0.804
same,glycan array binding signal (z-score),[9],-0.172
same,glycan array binding signal (z-score),[10],0.707
same,glycan array binding signal (z-score),[11],0.656
same,glycan array binding signal (z-score),[12],1.53
same,glycan array binding signal (z-score),[13],-0.365
same,glycan array binding signal (z-score),[14],-0.193
same,glycan array binding signal (z-score),[15],0.41
same,glycan array binding signal (z-score),[16],-0.287
same,glycan array binding signal (z-score),[17],-0.5
same,glycan array binding signal (z-score),[18],-0.668
same,glycan array binding signal (z-score),[19],-0.008
same,glycan array binding signal (z-score),[20],-0.591
same,glycan array binding signal (z-score),Gal(b1-6)Gal,-0.061
same,glycan array binding signal (z-score),Gal3S(b1-3)GalNAc,-0.625
same,glycan array binding signal (z-score),Gal3S(b1-3)GlcNAc,-0.164
same,glycan array binding signal (z-score),[21],-0.189
same,glycan array binding signal (z-score),Gal3S(b1-4)Glc,0.294
same,glycan array binding signal (z-score),Gal3S(b1-4)Glc6S,6.38
same,glycan array binding signal (z-score),Gal3S(b1-4)GlcNAc,-0.337
same,glycan array binding signal (z-score),Gal3S(b1-4)GlcNAc6S,1.6
same,glycan array binding signal (z-score),[22],0.12
same,glycan array binding signal (z-score),[23],0.702
same,glycan array binding signal (z-score),Gal3S4S(b1-4)GlcNAc,1.82
same,glycan array binding signal (z-score),Gal3S6S(b1-4)GlcNAc,1.72
same,glycan array binding signal (z-score),Gal3S6S(b1-4)GlcNAc6S,1.81
same,glycan array binding signal (z-score),Gal4S(b1-4)GlcNAc,-0.668
same,glycan array binding signal (z-score),Gal4S6S(b1-4)GlcNAc,1.02
same,glycan array binding signal (z-score),Gal6S(b1-3)GlcNAc,-0.566
same,glycan array binding signal (z-score),Gal6S(b1-3)GlcNAc6S,3.63
same,glycan array binding signal (z-score),Gal6S(b1-4)Glc,-0.25

# As a working copy, part of the list above.
binder,measurement,setting,value
B1,glycan array binding signal (z-score),Gal3S6S(b1-4)GlcNAc6S,1.81
same,glycan array binding signal (z-score),Gal4S(b1-4)GlcNAc,-0.668
